Measured values published in the supplement of paper PMC10849652.
Some of the results follow.

Chains of the proteins cited; added tags and fusions are not shown. Lines headed by an entry give the natural chain unless they say otherwise; changes in a name come on top.
UniProt Q99471, whole entry, looked up: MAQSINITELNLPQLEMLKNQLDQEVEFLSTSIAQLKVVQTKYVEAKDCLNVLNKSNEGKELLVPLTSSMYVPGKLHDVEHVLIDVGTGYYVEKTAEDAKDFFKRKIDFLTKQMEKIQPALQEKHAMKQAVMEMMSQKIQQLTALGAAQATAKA
UniProt O00459, whole entry, looked up: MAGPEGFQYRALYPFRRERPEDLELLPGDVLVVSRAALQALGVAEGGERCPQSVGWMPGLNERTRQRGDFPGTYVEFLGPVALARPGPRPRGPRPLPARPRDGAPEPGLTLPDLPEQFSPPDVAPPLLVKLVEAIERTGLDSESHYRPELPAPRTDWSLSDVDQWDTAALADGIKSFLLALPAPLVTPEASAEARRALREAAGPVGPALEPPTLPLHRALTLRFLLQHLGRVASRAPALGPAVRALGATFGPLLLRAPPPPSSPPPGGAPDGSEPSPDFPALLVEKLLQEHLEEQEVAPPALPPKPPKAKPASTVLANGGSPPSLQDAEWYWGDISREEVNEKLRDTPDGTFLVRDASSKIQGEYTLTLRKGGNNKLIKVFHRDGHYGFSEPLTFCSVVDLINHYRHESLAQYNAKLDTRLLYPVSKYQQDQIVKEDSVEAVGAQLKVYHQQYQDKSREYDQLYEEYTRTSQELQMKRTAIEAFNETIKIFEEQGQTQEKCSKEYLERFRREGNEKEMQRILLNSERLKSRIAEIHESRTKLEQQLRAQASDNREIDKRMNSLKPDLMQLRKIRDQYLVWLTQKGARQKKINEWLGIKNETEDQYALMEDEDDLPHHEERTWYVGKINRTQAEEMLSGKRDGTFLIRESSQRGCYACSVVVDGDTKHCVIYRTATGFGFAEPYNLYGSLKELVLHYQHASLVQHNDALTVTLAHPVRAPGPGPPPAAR
UniProt Q96S52: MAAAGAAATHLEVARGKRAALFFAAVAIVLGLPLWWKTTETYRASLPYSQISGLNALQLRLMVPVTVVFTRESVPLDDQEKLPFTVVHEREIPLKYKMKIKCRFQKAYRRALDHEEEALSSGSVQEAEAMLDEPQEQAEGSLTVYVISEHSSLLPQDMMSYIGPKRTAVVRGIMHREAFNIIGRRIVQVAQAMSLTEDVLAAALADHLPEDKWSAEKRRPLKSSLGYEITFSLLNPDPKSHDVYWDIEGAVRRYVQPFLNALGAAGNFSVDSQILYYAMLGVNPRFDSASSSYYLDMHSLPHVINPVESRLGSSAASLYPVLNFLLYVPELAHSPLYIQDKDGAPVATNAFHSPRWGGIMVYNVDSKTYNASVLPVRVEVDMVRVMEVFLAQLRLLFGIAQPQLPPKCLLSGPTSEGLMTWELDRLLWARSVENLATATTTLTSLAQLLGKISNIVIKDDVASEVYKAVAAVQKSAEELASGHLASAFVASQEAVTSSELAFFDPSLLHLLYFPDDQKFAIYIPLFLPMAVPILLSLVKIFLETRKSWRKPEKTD
UniProt Q9H490: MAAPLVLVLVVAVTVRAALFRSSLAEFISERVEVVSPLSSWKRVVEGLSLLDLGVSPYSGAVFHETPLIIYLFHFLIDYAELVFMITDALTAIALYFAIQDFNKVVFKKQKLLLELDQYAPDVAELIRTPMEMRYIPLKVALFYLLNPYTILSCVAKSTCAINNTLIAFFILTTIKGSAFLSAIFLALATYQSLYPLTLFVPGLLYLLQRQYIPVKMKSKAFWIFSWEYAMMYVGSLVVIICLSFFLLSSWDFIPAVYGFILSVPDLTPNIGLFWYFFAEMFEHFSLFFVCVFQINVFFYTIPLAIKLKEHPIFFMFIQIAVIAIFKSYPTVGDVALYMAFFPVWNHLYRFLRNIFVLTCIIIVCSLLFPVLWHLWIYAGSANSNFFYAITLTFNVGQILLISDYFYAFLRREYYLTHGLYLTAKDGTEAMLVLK
UniProt Q15149: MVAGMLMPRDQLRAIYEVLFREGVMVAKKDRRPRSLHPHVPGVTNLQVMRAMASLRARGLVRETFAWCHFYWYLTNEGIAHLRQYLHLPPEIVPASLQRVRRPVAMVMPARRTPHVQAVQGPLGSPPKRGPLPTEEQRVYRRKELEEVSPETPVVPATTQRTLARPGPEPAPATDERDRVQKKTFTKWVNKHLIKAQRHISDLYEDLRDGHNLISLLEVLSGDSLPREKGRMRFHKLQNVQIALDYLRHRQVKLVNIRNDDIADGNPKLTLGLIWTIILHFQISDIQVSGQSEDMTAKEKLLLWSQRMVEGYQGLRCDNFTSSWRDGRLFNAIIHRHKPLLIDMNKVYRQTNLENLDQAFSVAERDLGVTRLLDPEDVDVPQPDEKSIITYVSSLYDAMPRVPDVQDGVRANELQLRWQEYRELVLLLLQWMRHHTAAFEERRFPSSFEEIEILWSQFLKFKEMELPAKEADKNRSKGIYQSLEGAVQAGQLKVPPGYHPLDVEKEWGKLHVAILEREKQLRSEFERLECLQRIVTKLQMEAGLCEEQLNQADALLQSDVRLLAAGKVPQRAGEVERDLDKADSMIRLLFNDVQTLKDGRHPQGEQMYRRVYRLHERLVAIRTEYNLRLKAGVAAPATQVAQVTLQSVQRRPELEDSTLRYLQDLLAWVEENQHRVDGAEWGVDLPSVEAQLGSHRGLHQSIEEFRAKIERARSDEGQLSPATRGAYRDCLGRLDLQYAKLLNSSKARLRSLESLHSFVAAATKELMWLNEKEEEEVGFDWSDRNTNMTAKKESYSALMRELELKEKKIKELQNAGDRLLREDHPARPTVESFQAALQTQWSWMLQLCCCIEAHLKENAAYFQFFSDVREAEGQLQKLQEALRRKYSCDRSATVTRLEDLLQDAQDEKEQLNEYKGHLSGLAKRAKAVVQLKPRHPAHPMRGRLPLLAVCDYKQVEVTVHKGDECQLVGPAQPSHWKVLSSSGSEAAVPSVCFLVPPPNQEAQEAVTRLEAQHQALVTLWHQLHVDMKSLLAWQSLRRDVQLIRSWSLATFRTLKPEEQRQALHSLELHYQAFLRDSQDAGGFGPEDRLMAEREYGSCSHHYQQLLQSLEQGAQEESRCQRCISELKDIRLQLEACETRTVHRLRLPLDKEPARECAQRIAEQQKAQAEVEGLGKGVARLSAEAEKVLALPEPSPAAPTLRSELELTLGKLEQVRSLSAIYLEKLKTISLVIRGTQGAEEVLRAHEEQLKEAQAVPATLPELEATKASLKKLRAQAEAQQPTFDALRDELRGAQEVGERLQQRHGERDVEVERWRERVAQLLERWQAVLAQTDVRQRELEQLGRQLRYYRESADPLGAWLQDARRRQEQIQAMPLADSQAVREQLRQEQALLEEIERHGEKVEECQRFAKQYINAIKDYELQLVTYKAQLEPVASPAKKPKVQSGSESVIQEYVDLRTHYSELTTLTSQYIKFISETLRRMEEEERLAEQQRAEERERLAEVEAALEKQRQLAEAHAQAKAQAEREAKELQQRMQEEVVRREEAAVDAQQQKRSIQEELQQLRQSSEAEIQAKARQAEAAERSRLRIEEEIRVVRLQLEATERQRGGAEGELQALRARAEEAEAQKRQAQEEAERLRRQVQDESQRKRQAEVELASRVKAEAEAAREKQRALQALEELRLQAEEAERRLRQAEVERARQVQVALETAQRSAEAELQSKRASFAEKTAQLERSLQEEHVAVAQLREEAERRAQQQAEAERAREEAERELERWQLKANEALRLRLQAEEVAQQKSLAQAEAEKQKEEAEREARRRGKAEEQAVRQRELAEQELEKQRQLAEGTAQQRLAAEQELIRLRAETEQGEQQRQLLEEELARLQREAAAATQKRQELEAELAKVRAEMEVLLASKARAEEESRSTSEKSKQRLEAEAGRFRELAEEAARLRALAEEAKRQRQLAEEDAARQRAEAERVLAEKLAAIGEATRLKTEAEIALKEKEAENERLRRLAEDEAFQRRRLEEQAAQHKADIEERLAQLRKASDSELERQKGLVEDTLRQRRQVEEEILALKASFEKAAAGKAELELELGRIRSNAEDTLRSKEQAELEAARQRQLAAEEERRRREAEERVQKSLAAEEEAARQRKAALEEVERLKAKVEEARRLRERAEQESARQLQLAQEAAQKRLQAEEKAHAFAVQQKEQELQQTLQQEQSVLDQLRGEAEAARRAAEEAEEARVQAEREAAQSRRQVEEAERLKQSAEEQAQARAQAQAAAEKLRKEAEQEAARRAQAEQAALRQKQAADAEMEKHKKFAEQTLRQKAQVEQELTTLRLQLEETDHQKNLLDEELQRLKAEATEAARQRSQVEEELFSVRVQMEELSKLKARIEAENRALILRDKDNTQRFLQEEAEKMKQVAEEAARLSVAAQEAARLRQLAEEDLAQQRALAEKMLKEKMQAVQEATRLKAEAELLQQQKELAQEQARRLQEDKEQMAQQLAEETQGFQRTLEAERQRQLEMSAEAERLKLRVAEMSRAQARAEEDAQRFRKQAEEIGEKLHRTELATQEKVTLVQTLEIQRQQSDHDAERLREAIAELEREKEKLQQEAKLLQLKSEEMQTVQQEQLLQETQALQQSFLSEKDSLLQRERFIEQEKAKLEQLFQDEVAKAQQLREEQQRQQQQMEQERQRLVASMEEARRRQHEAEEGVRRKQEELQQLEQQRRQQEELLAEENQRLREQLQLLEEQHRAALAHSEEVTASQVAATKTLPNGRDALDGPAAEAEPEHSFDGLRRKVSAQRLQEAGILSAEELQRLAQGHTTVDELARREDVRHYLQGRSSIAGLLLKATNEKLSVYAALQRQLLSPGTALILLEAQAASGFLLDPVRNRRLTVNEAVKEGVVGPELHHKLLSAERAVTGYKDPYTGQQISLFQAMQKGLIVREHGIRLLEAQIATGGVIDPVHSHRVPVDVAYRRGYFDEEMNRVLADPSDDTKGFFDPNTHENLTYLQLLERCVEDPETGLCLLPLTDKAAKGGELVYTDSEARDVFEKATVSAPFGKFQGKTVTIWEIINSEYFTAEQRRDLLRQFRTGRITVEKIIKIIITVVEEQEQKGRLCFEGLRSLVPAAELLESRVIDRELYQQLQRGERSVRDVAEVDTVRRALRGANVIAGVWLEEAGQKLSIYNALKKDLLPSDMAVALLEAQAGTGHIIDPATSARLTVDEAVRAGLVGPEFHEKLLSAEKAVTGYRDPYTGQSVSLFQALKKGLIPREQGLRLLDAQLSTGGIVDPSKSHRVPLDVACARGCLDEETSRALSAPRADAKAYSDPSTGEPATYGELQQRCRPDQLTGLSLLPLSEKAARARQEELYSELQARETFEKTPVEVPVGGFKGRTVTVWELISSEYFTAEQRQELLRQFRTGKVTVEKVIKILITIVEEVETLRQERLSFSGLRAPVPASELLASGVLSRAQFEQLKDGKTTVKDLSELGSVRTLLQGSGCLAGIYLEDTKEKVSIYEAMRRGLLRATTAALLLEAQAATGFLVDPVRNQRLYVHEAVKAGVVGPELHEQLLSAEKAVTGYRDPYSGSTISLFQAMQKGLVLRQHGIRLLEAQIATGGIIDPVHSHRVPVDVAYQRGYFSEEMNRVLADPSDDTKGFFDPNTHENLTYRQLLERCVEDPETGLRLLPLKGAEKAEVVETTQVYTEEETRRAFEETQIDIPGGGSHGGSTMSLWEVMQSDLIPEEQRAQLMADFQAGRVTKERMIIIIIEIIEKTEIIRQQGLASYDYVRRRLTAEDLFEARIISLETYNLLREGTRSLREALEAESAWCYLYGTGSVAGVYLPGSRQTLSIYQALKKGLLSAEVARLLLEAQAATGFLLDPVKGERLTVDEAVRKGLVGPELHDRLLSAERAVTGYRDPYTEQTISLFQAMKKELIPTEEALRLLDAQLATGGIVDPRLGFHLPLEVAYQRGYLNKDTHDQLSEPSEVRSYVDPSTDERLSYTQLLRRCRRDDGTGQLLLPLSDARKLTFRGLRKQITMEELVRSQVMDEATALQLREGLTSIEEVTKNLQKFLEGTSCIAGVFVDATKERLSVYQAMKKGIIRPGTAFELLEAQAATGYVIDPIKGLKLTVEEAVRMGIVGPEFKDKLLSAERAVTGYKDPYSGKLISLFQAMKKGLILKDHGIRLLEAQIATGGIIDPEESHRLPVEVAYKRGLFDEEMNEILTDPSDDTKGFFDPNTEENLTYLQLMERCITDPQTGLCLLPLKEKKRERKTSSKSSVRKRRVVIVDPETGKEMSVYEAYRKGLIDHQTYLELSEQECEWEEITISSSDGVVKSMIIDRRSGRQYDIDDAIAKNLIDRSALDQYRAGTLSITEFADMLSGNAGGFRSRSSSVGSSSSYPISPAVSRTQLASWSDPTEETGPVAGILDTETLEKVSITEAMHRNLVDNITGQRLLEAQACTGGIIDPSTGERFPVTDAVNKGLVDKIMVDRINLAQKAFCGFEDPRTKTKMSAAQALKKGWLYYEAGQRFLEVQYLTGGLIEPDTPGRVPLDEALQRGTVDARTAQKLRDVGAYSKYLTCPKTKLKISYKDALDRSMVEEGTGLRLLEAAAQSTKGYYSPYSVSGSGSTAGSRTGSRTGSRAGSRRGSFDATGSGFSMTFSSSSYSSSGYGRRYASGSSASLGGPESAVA

Assays:
Assay in all cases: log2 fold change, soluble protein after heating vs DMSO (PISA); higher = thermal stabilisation; K562 cells, 10 uM, 30 min; active = over 0.2 and 3.5 SD of the protein, either way, in both replicates (recomputed)
[1] = compound: COC1=CC=C(C=C1)CN2C=CC3=C2C=C(C=C3)C(=O)NO
Outline: (§1)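 Quantification of soluble protein used TMTpro 16plex LC-MS/MS, with channel sums equalised. Samples were the supernatant after 21,000xg for 90 min of pooled aliquots from K562 cells (2×10^6 cells/mL) treated with 10 μM compound for 30 min, heated for 3 min over 48°C-58°C, and extracted in PBS with 0.5% NP-40 at 4°C. Values, from duplicates, describe thermal stability against control samples on a log2 fold-change scale.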

filanesib = compound: CON(C)C(=O)N1N=C(c2cc(F)ccc2F)S[C@@]1(CCCN)c1ccccc1 [filanesib]
Outline: as §1

zotarolimus = compound: CO[C@H]1C[C@@H]2CC[C@@H](C)[C@@](O)(O2)C(=O)C(=O)N2CCCC[C@H]2C(=O)O[C@H]([C@H](C)C[C@@H]2CC[C@H](n3cnnn3)[C@H](OC)C2)CC(=O)[C@H](C)/C=C(\C)[C@@H](O)[C@@H](OC)C(=O)[C@H](C)C[C@H](C)/C=C/C=C/C=C/1C [zotarolimus]
Outline: as §1

idasanutlin = compound: COc1cc(C(=O)O)ccc1NC(=O)[C@@H]1N[C@@H](CC(C)(C)C)[C@](C#N)(c2ccc(Cl)cc2F)[C@H]1c1cccc(Cl)c1F [idasanutlin]
Outline: as §1

alisertib = compound: COc1cc(Nc2ncc3c(n2)-c2ccc(Cl)cc2C(c2c(F)cccc2OC)=NC3)ccc1C(=O)O [alisertib]
Outline: as §1

[2] = compound: COc1cc2nc(-c3cc(F)ccc3O)nc(N[C@@H]3CNC[C@H]3C(C)(C)O)c2cc1OC
Outline: as §1

gefitinib = compound: COc1cc2ncnc(Nc3ccc(F)c(Cl)c3)c2cc1OCCCN1CCOCC1 [gefitinib]
Outline: as §1

[3] = compound: COc1cccc2cc(-c3nc([C@H]4CC[C@H](C(=O)O)CC4)n4ncnc(N)c34)[nH]c12
Outline: as §1

lapatinib = compound: CS(=O)(=O)CCNCc1ccc(-c2ccc3ncnc(Nc4ccc(OCc5cccc(F)c5)c(Cl)c4)c3c2)o1 [lapatinib]
Outline: as §1

pictilisib = compound: CS(=O)(=O)N1CCN(Cc2cc3nc(-c4cccc5[nH]ncc45)nc(N4CCOCC4)c3s2)CC1 [pictilisib]
Outline: as §1

[4] = compound: CS(=O)(=O)c1ccc(-c2cnc(N)c(C(=O)Nc3ccccc3)n2)cc1
Outline: as §1

crizotinib = compound: C[C@@H](Oc1cc(-c2cnn(C3CCNCC3)c2)cnc1N)c1c(Cl)ccc(F)c1Cl [crizotinib]
Outline: as §1

[5] = compound: C[C@@H]1COCCN1C2=NC(=NC(=C2)C3(CC3)S(=O)(=O)C)C4=C5C=CNC5=CC=C4
Outline: as §1

[6] = compound: C[C@H](C1=CC=C(C=C1)C(=O)NC2=C3C=CNC3=NC=C2)N
Outline: as §1

duvelisib = compound: C[C@H](Nc1ncnc2nc[nH]c12)c1cc2cccc(Cl)c2c(=O)n1-c1ccccc1 [duvelisib]
Outline: as §1

gandotinib = compound: Cc1cc(Nc2cc(CN3CCOCC3)c3nc(C)c(Cc4ccc(Cl)cc4F)n3n2)n[nH]1 [gandotinib]
Outline: as §1

tozasertib = compound: Cc1cc(Nc2cc(N3CCN(C)CC3)nc(Sc3ccc(NC(=O)C4CC4)cc3)n2)n[nH]1 [tozasertib]
Outline: as §1

[7] = compound: Cc1cc(SCc2sc(-c3ccc(C(F)(F)F)cc3)nc2C)ccc1OCC(=O)O
Outline: as §1

doramapimod = compound: Cc1ccc(-n2nc(C(C)(C)C)cc2NC(=O)Nc2ccc(OCCN3CCOCC3)c3ccccc23)cc1 [doramapimod]
Outline: as §1

ispinesib = compound: Cc1ccc(C(=O)N(CCCN)[C@@H](c2nc3cc(Cl)ccc3c(=O)n2Cc2ccccc2)C(C)C)cc1 [ispinesib]
Outline: as §1

Measured: log2 fold change

PHF3 (UniProt Q92576)
inactive: [1] -0.068 | filanesib 0.263 | zotarolimus -0.069 | idasanutlin 0.139 | alisertib -0.095 | [2] 0.163 | gefitinib -0.024 | [3] -0.001 | lapatinib 0.054 | pictilisib -0.071 | [4] -0.091 | crizotinib -0.013 | [5] -0.074 | [6] 0.262 | duvelisib -0.091 | gandotinib 0.093 | tozasertib -0.095 | [7] 0.009 | doramapimod 0.115 | ispinesib -0.066

PFKM isoform 3 (UniProt P08237)
inactive: [1] -0.046 | filanesib -0.025 | zotarolimus -0.027 | idasanutlin -0.037 | alisertib -0.034 | [2] 0 | gefitinib -0.011 | [3] 0.092 | lapatinib -0.013 | pictilisib -0.034 | [4] 0 | crizotinib 0.051 | [5] 0.041 | [6] -0.04 | duvelisib 0.017 | gandotinib 0.01 | tozasertib -0.022 | [7] -0.021 | doramapimod 0.013 | ispinesib 0.038

PHB2 (UniProt Q99623)
inactive: [1] -0.003 | filanesib -0.04 | zotarolimus -0.03 | idasanutlin -0.02 | alisertib -0.047 | [2] -0.007 | gefitinib 0.002 | [3] 0.041 | lapatinib 0.02 | pictilisib -0.002 | [4] -0.01 | crizotinib 0.031 | [5] 0.003 | [6] -0.029 | duvelisib 0 | gandotinib -0.021 | tozasertib -0.002 | [7] -0.026 | doramapimod -0.003 | ispinesib -0.013

PFKFB3 isoform 4 (UniProt Q16875)
inactive: [1] -0.009 | filanesib -0.005 | zotarolimus 0.093 | idasanutlin -0.028 | alisertib 0.001 | [2] 0.014 | gefitinib -0.033 | [3] 0.005 | lapatinib -0.039 | pictilisib -0.041 | [4] 0 | crizotinib -0.008 | [5] 0.03 | [6] 0.011 | duvelisib 0.05 | gandotinib 0.066 | tozasertib -0.012 | [7] -0.064 | doramapimod -0.025 | ispinesib 0.033

PFDN5 (UniProt Q99471)
inactive: [1] 0.086 | filanesib -0.032 | zotarolimus 0.077 | idasanutlin -0.034 | alisertib -0.056 | [2] -0.144 | gefitinib -0.004 | [3] -0.02 | lapatinib 0.014 | pictilisib -0.067 | [4] -0.048 | crizotinib 0.13 | [5] 0.078 | [6] -0.148 | duvelisib 0.038 | gandotinib 0.054 | tozasertib 0.08 | [7] -0.021 | doramapimod 0.019 | ispinesib 0.194

PIK3R2 (UniProt O00459)
inactive: [1] -0.066 | filanesib -0.089 | zotarolimus -0.046 | idasanutlin 0.012 | alisertib 0.026 | [2] 0.002 | gefitinib 0.014 | [3] 0.114 | lapatinib -0.054 | pictilisib 0.19 | [4] 0.042 | crizotinib -0.039 | [5] 0.218 | [6] 0.018 | duvelisib 0.1 | gandotinib -0.01 | tozasertib -0.047 | [7] 0.017 | doramapimod -0.004 | ispinesib -0.111

PICALM (UniProt Q13492)
inactive: [1] -0.03 | filanesib -0.042 | zotarolimus 0.012 | idasanutlin -0.057 | alisertib -0.032 | [2] -0.002 | gefitinib -0.002 | [3] 0.049 | lapatinib -0.012 | pictilisib 0.027 | [4] 0.047 | crizotinib -0.003 | [5] 0.061 | [6] -0.048 | duvelisib 0.031 | gandotinib -0.066 | tozasertib -0.038 | [7] -0.05 | doramapimod -0.017 | ispinesib -0.011

PIGS (UniProt Q96S52)
inactive: [1] -0.012 | filanesib 0.02 | zotarolimus -0.005 | idasanutlin -0.036 | alisertib -0.027 | [2] 0.018 | gefitinib -0.008 | [3] -0.01 | lapatinib 0.044 | pictilisib -0.013 | [4] 0.004 | crizotinib -0.009 | [5] -0.036 | [6] 0.053 | duvelisib 0.053 | gandotinib -0.037 | tozasertib -0.016 | [7] 0.035 | doramapimod 0.008 | ispinesib -0.007

PKLR (UniProt P30613)
inactive: [1] 0.01 | filanesib -0.016 | zotarolimus 0.024 | idasanutlin -0.013 | alisertib -0.073 | [2] 0.024 | gefitinib -0.002 | [3] 0.047 | lapatinib -0.017 | pictilisib 0.02 | [4] 0 | crizotinib 0.019 | [5] 0.023 | [6] -0.082 | duvelisib 0.012 | gandotinib -0.038 | tozasertib 0 | [7] -0.041 | doramapimod -0.024 | ispinesib 0.011

PGS1 (UniProt Q32NB8)
inactive: [1] -0.075 | filanesib -0.031 | zotarolimus -0.095 | idasanutlin -0.014 | alisertib -0.247 | [2] 0.001 | gefitinib 0.1 | [3] 0.089 | lapatinib -0.041 | pictilisib 0.005 | [4] -0.001 | crizotinib -0.064 | [5] 0.038 | [6] 0.052 | duvelisib -0.01 | gandotinib 0.224 | tozasertib -0.042 | [7] 0.117 | doramapimod 0.025

PHKB isoform 3 (UniProt Q93100)
inactive: [1] -0.03 | filanesib 0.071 | zotarolimus 0.004 | idasanutlin -0.053 | alisertib 0.003 | [2] 0.16 | gefitinib -0.035 | [3] 0.082 | lapatinib 0.022 | pictilisib -0.124 | [4] -0.024 | crizotinib -0.033 | [5] 0.031 | [6] 0.128 | duvelisib -0.02 | gandotinib 0.049 | tozasertib 0.011 | [7] 0.062 | doramapimod 0.055 | ispinesib -0.107

PFKFB2 (UniProt O60825)
inactive: [1] -0.001 | filanesib -0.029 | zotarolimus 0.01 | idasanutlin -0.055 | alisertib -0.078 | [2] 0.024 | gefitinib 0.003 | [3] 0.019 | lapatinib -0.008 | pictilisib -0.057 | [4] 0.065 | crizotinib 0.011 | [5] 0.036 | [6] -0.048 | duvelisib -0.037 | gandotinib -0.014 | tozasertib -0.038 | [7] 0.011 | doramapimod -0.023 | ispinesib 0.012

Two records drawn at random from those above, as already listed:
PIGS (UniProt Q96S52)
inactive: [1] -0.012 | filanesib 0.02 | zotarolimus -0.005 | idasanutlin -0.036 | alisertib -0.027 | [2] 0.018 | gefitinib -0.008 | [3] -0.01 | lapatinib 0.044 | pictilisib -0.013 | [4] 0.004 | crizotinib -0.009 | [5] -0.036 | [6] 0.053 | duvelisib 0.053 | gandotinib -0.037 | tozasertib -0.016 | [7] 0.035 | doramapimod 0.008 | ispinesib -0.007

PFKFB2 (UniProt O60825)
inactive: [1] -0.001 | filanesib -0.029 | zotarolimus 0.01 | idasanutlin -0.055 | alisertib -0.078 | [2] 0.024 | gefitinib 0.003 | [3] 0.019 | lapatinib -0.008 | pictilisib -0.057 | [4] 0.065 | crizotinib 0.011 | [5] 0.036 | [6] -0.048 | duvelisib -0.037 | gandotinib -0.014 | tozasertib -0.038 | [7] 0.011 | doramapimod -0.023 | ispinesib 0.012

The list goes on.

PGK1 (UniProt P00558)
inactive: [1] -0.007 | filanesib -0.072 | zotarolimus 0.018 | idasanutlin -0.034 | alisertib -0.009 | [2] 0.079 | gefitinib 0.004 | [3] 0.02 | lapatinib -0.022 | pictilisib 0.065 | [4] 0.08 | crizotinib 0.01 | [5] 0.087 | [6] -0.028 | duvelisib 0.05 | gandotinib -0.012 | tozasertib -0.013 | [7] 0.009 | doramapimod -0.017 | ispinesib 0.063

PIGU (UniProt Q9H490)
inactive: [1] -0.143 | filanesib -0.087 | zotarolimus 0.066 | idasanutlin -0.138 | alisertib -0.058 | [2] -0.077 | gefitinib 0.033 | [3] -0.037 | lapatinib 0.035 | pictilisib -0.047 | [4] -0.105 | crizotinib -0.14 | [5] 0.151 | [6] -0.145 | duvelisib -0.004 | gandotinib -0.111 | tozasertib 0.045 | [7] -0.012 | doramapimod 0.062 | ispinesib 0.019

PLEC (UniProt Q15149)
inactive: [1] 0.111 | filanesib 0.118 | zotarolimus 0.057 | idasanutlin 0.218 | alisertib 0.011 | [2] -0.017 | gefitinib -0.04 | [3] -0.11 | lapatinib 0.036 | pictilisib 0.064 | [4] 0.001 | crizotinib -0.03 | [5] -0.147 | [6] 0.256 | duvelisib -0.051 | gandotinib 0.123 | tozasertib 0.077 | [7] 0.075 | doramapimod 0.09 | ispinesib -0.124

PICALM (UniProt H0YEY8)
inactive: [1] -0.123 | filanesib 0.007 | zotarolimus 0.099 | idasanutlin 0 | alisertib 0.001 | [2] -0.155 | gefitinib -0.019 | [3] 0.12 | lapatinib 0.029 | pictilisib 0.137 | [4] 0.05 | crizotinib -0.018 | [5] 0.021 | [6] -0.108 | duvelisib -0.098 | gandotinib -0.07 | tozasertib -0.041 | [7] 0.08 | doramapimod -0.043 | ispinesib -0.074
